Data source: PubChem BioAssay AID686938 (Drosophila RNAi Screening Center, 2013)
Aim: 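Looking for CRAC channel components and the factors controlling them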 (primary screen). System: Drosophila S2R+ cells. Knock-down reagent: long dsRNA against Drosophila genes, about 0.25 µg dsRNA per well, roughly 10,000 cells. Time to read-out: 5 days of knock-down before the calcium assay. Conditions: thapsigargin (SERCA pump blocker) to empty calcium stores; entry signal taken 4 min after adding it. Read-out: 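Duplicate raw fluo-4 intensities per well from a plate reader, at rest and four minutes after thapsigargin emptied calcium stores; entry-to-rest ratio filled for only some wells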. Reading the numbers: calcium entry signal: higher = stronger calcium signal after store depletion; resting calcium signal: higher = higher resting calcium signal. Hit rule: 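Hit if the duplicate-averaged plate z-score for entry over resting signal is under −3; wells with weak total dye signal (Fmax z < −2) or more than 5 off-targets removed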. Calls: active = strongly reduced calcium entry; inactive = no strong reduction.
The deposit covers about 23,000 reagents; this is an unselected part of those with a known target gene and a result. Over the whole deposit, 75 (0.33%) are marked active. 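Raw plate signals without normalisation; calls rest on plate z-scores that were not deposited; ratio present for only 364 wells.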 Entries without a mark were called inactive. Names joined by + are all predicted targets of the reagent. Not given: the dose of the treatment.

| target gene | DRSC id | calcium entry signal, replicate 1 (fluorescence units) | calcium entry signal, replicate 2 (fluorescence units) | resting calcium signal, replicate 1 (fluorescence units) | resting calcium signal, replicate 2 (fluorescence units) |
| --- | --- | --- | --- | --- | --- |
| spoon | DRSC18299 | 2.18e7 | 2.69e7 | 1.01e7 | 1.22e7 |
| CDK2AP1 | DRSC19800 | 2.98e7 | 3.66e7 | 1.46e7 | 1.71e7 |
| CG32432 | DRSC11703 | 2.17e7 | 2.91e7 | 1.48e7 | 1.67e7 |
| CG32432 | DRSC11704 | 3.23e7 | 5.40e7 | 1.82e7 | 2.66e7 |
| CG32432 | DRSC11744 | 3.01e7 | 4.66e7 | 1.44e7 | 2.03e7 |
| CG11601 | DRSC00318 | 4.63e7 | 4.47e7 | 2.07e7 | 1.92e7 |
| stops | DRSC15095 | 4.77e7 | 5.68e7 | 2.34e7 | 2.39e7 |
| stops | DRSC15096 | 4.18e7 | 5.30e7 | 2.13e7 | 2.33e7 |
| stops | DRSC15097 | 4.43e7 | 5.78e7 | 2.18e7 | 2.50e7 |
| Ucp4C | DRSC03132 | 3.63e7 | 4.22e7 | 1.86e7 | 2.07e7 |
| RhoGAP19D | DRSC20499 | 2.72e7 | 2.86e7 | 1.54e7 | 1.35e7 |
| RhoGAP19D | DRSC20500 | 4.95e7 | 4.88e7 | 2.21e7 | 2.12e7 |
| Npc2h | DRSC14297 | 4.28e7 | 6.25e7 | 2.13e7 | 2.71e7 |
| ds | DRSC00815 | 2.68e7 | 3.09e7 | 1.32e7 | 1.34e7 |
| CG12818 | DRSC14556 | 3.83e7 | 3.40e7 | 1.75e7 | 1.75e7 |
| CG5439 | DRSC02861 | 4.45e7 | – | 2.36e7 | – |
| Snmp2 | DRSC10228 | 3.54e7 | 6.23e7 | 1.75e7 | 2.55e7 |
| Snmp2 | DRSC10843 | 3.86e7 | 5.64e7 | 1.70e7 | 2.47e7 |
| Dbp21E2 | DRSC00616 | 4.37e7 | – | 2.28e7 | – |
| Edc3 | DRSC10620 | 3.31e7 | 3.91e7 | 1.64e7 | 2.41e7 |
| SREBP | DRSC11182 | 1.60e7 | 1.36e7 | 1.30e7 | 1.08e7 |
| TwdlO | DRSC16043 | 1.93e7 | 3.45e7 | 1.07e7 | 1.49e7 |
| Epp | DRSC14607 | 2.40e7 | 2.44e7 | 1.28e7 | 1.17e7 |
| inaF-A | DRSC19660 | 3.17e7 | 4.62e7 | 1.66e7 | 1.93e7 |
| CG13023 | DRSC09454 | 4.41e7 | 3.79e7 | 2.17e7 | 1.92e7 |
| CG13023 | DRSC09903 | 3.33e7 | 6.24e7 | 1.72e7 | 2.35e7 |
| CG8157 | DRSC07085 | 3.55e7 | 4.30e7 | 1.68e7 | 1.83e7 |
| CG8157 | DRSC21595 | 2.72e7 | 3.13e7 | 1.40e7 | 1.39e7 |
| PIG-U | DRSC02193 | 4.90e7 | – | 2.26e7 | – |
| CG8142 | DRSC20086 | 3.34e7 | 3.29e7 | 1.52e7 | 1.53e7 |
| sala + CG43355 | DRSC01188 | 4.07e7 | 3.84e7 | 1.98e7 | 1.95e7 |
| sala + CG43355 | DRSC03605 | 4.33e7 | 5.28e7 | 2.09e7 | 2.37e7 |
| gammaSnap2 | DRSC15992 | 2.49e7 | 2.19e7 | 1.34e7 | 1.15e7 |
| Pi3K59F | DRSC04640 | 4.98e7 | – | 2.35e7 | – |
| CG34348 | DRSC19425 | 3.88e7 | 3.61e7 | 1.73e7 | 1.67e7 |
| CG34348 | DRSC19644 | 3.54e7 | 3.94e7 | 1.62e7 | 1.83e7 |
| CG42812 | DRSC15368 | 3.68e7 | 5.23e7 | 2.07e7 | 2.19e7 |
| PCB | DRSC05939 | 4.46e7 | 3.10e7 | 1.86e7 | 1.58e7 |
| Rad23 | DRSC17167 | 3.35e7 | 4.24e7 | 1.60e7 | 2.07e7 |
| garz | DRSC07193 | 2.39e7 | 5.30e7 | 1.60e7 | 2.11e7 |
| kra | DRSC12320 | 2.46e7 | 3.23e7 | 1.29e7 | 1.70e7 |
| Tango10 | DRSC19807 | 3.06e7 | 3.33e7 | 1.45e7 | 1.63e7 |
| lt | DRSC03759 | 4.69e7 | 4.74e7 | 2.33e7 | 2.25e7 |
| CG4554 | DRSC04473 | 2.09e7 | 3.41e7 | 1.26e7 | 1.72e7 |
| CG11162 | DRSC19391 | 3.80e7 | 3.50e7 | 1.89e7 | 1.58e7 |
| CG11162 | DRSC22538 | 1.97e7 | 2.90e7 | 1.15e7 | 1.23e7 |
| Nubp1 | DRSC02639 | 4.37e7 | – | 2.32e7 | – |
| CG3085 | DRSC04335 | 3.54e7 | – | 1.70e7 | – |
| CG17929 | DRSC15291 | 3.33e7 | 5.70e7 | 1.72e7 | 8.02e7 |
| Coa7 | DRSC20967 | 2.65e7 | 3.77e7 | 1.51e7 | 1.82e7 |
| Mcm7 | DRSC11219 | 3.08e7 | 2.26e7 | 2.57e7 | 1.28e7 |
| Teh4 | DRSC08457 | 4.49e7 | 4.45e7 | 2.23e7 | 1.97e7 |
| sphinx1 | DRSC10993 | 2.82e7 | 3.36e7 | 1.35e7 | 1.48e7 |
| CG8369 | DRSC16413 | 4.17e7 | 3.12e7 | 2.05e7 | 1.49e7 |
| CHES-1-like | DRSC18447 | 3.92e7 | 4.44e7 | 1.85e7 | 2.17e7 |
| Cad96Cb | DRSC14243 | 3.52e7 | 4.84e7 | 1.90e7 | 2.06e7 |
| Cad96Cb | DRSC14665 | 3.91e7 | 5.14e7 | 1.99e7 | 2.06e7 |
| CG4502 | DRSC02755 | 3.80e7 | – | 1.96e7 | – |
| CG4502 | DRSC23237 | 3.54e7 | 3.54e7 | 1.91e7 | 1.58e7 |

Part of the list above, set out differently.
target gene	DRSC id	calcium entry signal, replicate 1 (fluorescence units)	calcium entry signal, replicate 2 (fluorescence units)	resting calcium signal, replicate 1 (fluorescence units)	resting calcium signal, replicate 2 (fluorescence units)
Ucp4C	DRSC03132	3.63e7	4.22e7	1.86e7	2.07e7
RhoGAP19D	DRSC20499	2.72e7	2.86e7	1.54e7	1.35e7
RhoGAP19D	DRSC20500	4.95e7	4.88e7	2.21e7	2.12e7
Npc2h	DRSC14297	4.28e7	6.25e7	2.13e7	2.71e7
ds	DRSC00815	2.68e7	3.09e7	1.32e7	1.34e7
CG12818	DRSC14556	3.83e7	3.40e7	1.75e7	1.75e7
CG5439	DRSC02861	4.45e7		2.36e7	
Snmp2	DRSC10228	3.54e7	6.23e7	1.75e7	2.55e7
Snmp2	DRSC10843	3.86e7	5.64e7	1.70e7	2.47e7
